According to PubChem BioAssay AID1347076 (National Center for Advancing Translational Sciences (NCATS), 2019):
Hit rate of the full screen: of about 400,000 compounds, about 13,000 (3.2%) were called active. Inconclusive means that the source gave no clear call. Such entries were picked first, then a sample of the others. Calls come from the whole dose curve; as a rule, active = well fitted cell-killing curve with a large enough effect; inconclusive = small, poorly fitted or top-dose-only effect, or effect the other way; inactive = flat fitted curve, though single readings scatter. Potencies of inconclusive entries are doubtful fits and often do not repeat.
% is set by controls: 0 for no effect and ±100 for the full control effect; potency is the fitted concentration of half-maximal effect.

Assay: qHTS assay for MDR1-selective chemotherapeutics: Primary screen using the drug-selected MDR subline cells KB-V1; note: nearly all actives have a fitted effect of over 60% in size
Conditions: KB-V1 MDR cells viability, CellTiter-Glo, 72 h; activity change, negative = cytotoxicity: at 46.1 µM (top of the series)
How it was run: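 Luminescent ATP read-out (CellTiter-Glo, 10 min) measures survival of drug-selected KB-V1 MDR cells after 72 h, 37 degrees C compound exposure. Medium: phenol-red-free DMEM, 10% FBS. Values from fitted concentration-response curves.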
In the case of `COC(=O)C1=C(O)CSC1=Nc1cccc(C(F)(F)F)c1`, the Potency is reported as inconclusive: 32.6 µM [cytotoxic, single point]. For `CCOC(=O)[C@@H]1[C@H]2COc3cc(OC)ccc3[C@@H]2N2C(=O)N(c3ccc(OC)cc3)C(=O)[C@@]12C`, the “activity change, negative = cytotoxicity” value was inactive: 21.7%. In the case of `CC(=O)c1ccccc1OC(=O)CCN1C(=O)C2C3C=CC(C4CC34)C2C1=O` (centres undefined), the Potency is reported as inconclusive: 29.1 µM [rising, single point]. For `CC(C)C(=O)OC1=CN(Cc2ccccc2)S(=O)(=O)c2ccccc21`, the “activity change, negative = cytotoxicity” value was inactive: -13.7%. With `CC1CCN(C(=O)COC(=O)c2cc3ccccc3cc2O)CC1` the Potency was inconclusive: 29.1 µM [cytotoxic, single point]. In the case of `O=C(NC1CCCCCC1)c1ccc([N+](=O)[O-])s1`, the “activity change, negative = cytotoxicity” value is reported as inactive: -18.5%. For `Cc1cc(-n2c(C)cc(C(=O)COc3cc(F)ccc3[N+](=O)[O-])c2C)no1`, the “activity change, negative = cytotoxicity” value was inactive: 8.5%. With `N#Cc1ccc(CSc2nnc(-c3ccccn3)n2-c2ccc(Cl)cc2)cc1` the Potency was inconclusive: 6.51 µM [cytotoxic, partial curve]. In the case of `COc1cccc(N(CC(=O)NCC2CCCO2)C(=O)CNS(=O)(=O)c2ccccc2)c1` (centres undefined), the “activity change, negative = cytotoxicity” value is reported as inactive: 2.45%. With `Cc1ccc(Cl)cc1NC(=O)CN(C)S(=O)(=O)c1ccc2c(c1)n(C)c(=O)c(=O)n2C` the “activity change, negative = cytotoxicity” value was inactive: 3.86%. With `COc1ccc2[nH]c(C(=O)O)c(NS(=O)(=O)c3ccc(C)c(C)c3)c2c1` the Potency was inconclusive: 14.6 µM [rising, partial curve]. With `Cn1ncc(Cl)c1C(=O)N1CCN(S(=O)(=O)c2ccc(Cl)s2)CC1` the Potency was inconclusive: 10.3 µM [cytotoxic, partial curve]. With `CC(=O)c1cccc(NC(=O)C(OC(=O)/C=C/c2ccc3c(c2)OCO3)c2ccccc2)c1` (centres undefined) the Potency was inconclusive: 14.6 µM [cytotoxic, single point]. For `COCC(C)OC(=O)C(C#N)c1nc2ccccc2nc1N1CCN(Cc2ccccc2)CC1` (centres undefined), the Potency was inconclusive: 23.1 µM [cytotoxic, single point]. For `Cn1nnnc1Sc1ncnc2scc(-c3ccc(Br)cc3)c12`, the Potency was inconclusive: 20.6 µM [cytotoxic, partial curve]. With `N#Cc1ccc(Cl)cc1NC(=O)CNc1cccc(S(=O)(=O)N2CCCC2)c1` the Potency was inconclusive: 23.1 µM [cytotoxic, single point]. With `COc1ccc2oc(C(=O)Nc3ccc(S(=O)(=O)N(C)C4CCN(C)CC4)cc3)c(C)c2c1` the “activity change, negative = cytotoxicity” value was inactive: 7.22%. In the case of `COc1ccccc1CNC(=O)/C=C/c1ccc(S(=O)(=O)N2CCOCC2)cc1`, the “activity change, negative = cytotoxicity” value is reported as inactive: -22.2%. In the case of `COc1ccc(C(=O)CSc2nnc(-c3ccco3)n2CC2CCCO2)cc1` (centres undefined), the “activity change, negative = cytotoxicity” value is reported as inactive: -15%. With `O=C(O)c1ccccc1OC(C(=O)Nc1cc(Cl)cc(Cl)c1)c1ccccc1` (centres undefined) the Potency was inconclusive: 16.4 µM [cytotoxic, single point]. For `COc1cc(C(=O)OCCCN2CCOCC2)cc(OC)c1OC`, the “activity change, negative = cytotoxicity” value was inactive: -11.7%. In the case of `C=C[C@]1(C)C=C2C(=O)[C@@]3(O)OC(=O)[C@@]4(CCCC(C)(C)[C@H]34)[C@@]2(O)CC1`, the Potency is reported as inconclusive: 2.91 µM [cytotoxic, full curve, poor fit]. With `COc1cc(C(=S)N2CCCC2)cc(OC)c1OC` the “activity change, negative = cytotoxicity” value was inactive: 15.6%. With `COCCCNc1c2c(nc3ccccc13)CCC2` the Potency was inconclusive: 23.1 µM [cytotoxic, single point]. In the case of `O=C(Nc1ccccn1)c1cccc(S(=O)(=O)N2CCc3ccccc3C2)c1`, the “activity change, negative = cytotoxicity” value is reported as inactive: -16.9%. For `CCOc1ccccc1NC(=O)c1nc(S(=O)(=O)Cc2ccccc2)ncc1Cl`, the Potency was inconclusive: 16.4 µM [cytotoxic, single point]. In the case of `CCOC(=O)[C@]12CCC=C1N(CCC1=CCCCC1)C(=O)[C@H](CC(=O)NCc1ccc(OC)c(OC)c1)C2`, the Potency is reported as inconclusive: 6.51 µM [cytotoxic, partial curve, poor fit]. With `Cc1ccc(-c2csc(N3CCC[C@@H]3C(=O)NCCn3c(C(F)(F)F)nc4ccccc43)n2)cc1` the activity change, negative = cytotoxicity was inconclusive: -39.6%. In the case of `CCOc1ccc(CNC(=O)c2c(C)nn(-c3ccc(F)cc3)c2-n2cccc2)cc1`, the Potency is reported as active: 13 µM. For `O=c1c2sccc2n(Cc2ccc(F)cc2)c(=O)n1-c1ccc(F)cc1`, the Potency was inconclusive: 29.1 µM [cytotoxic, single point]. For `Cc1cc(C)n(-c2nnc3n2N=C(c2c[nH]c4ccccc24)CS3)n1`, the Potency was inconclusive: 29.1 µM [cytotoxic, single point]. In the case of `Cc1ccc2c(c1)c(-c1ccccc1)nc1nnnn12`, the Potency is reported as inconclusive: 16.4 µM [cytotoxic, single point]. For `COc1ccc(OC)c(-c2cc(C(=O)Nc3cc(C)n(Cc4ccc(Cl)cc4)n3)no2)c1`, the “activity change, negative = cytotoxicity” value was inactive: -7.3%. For `CCOc1ccc(/C=N/NC(=O)Cc2csc(Nc3cccc(C(F)(F)F)c3)n2)c(OCC)c1`, the Potency was inconclusive: 29.1 µM [cytotoxic, single point]. With `CC1CCC(C(C)C)C(OCC(O)CNC(C)c2ccccc2)C1` (centres undefined) the Potency was active: 20.6 µM. In the case of `COc1ccccc1C1C(C(C)=O)=C(O)C(=O)N1c1ccc(O)cc1` (centres undefined), the Potency is reported as inconclusive: 18.4 µM [rising, partial curve]. In the case of `Cn1c(CSCc2ccc(Cl)cc2Cl)n[nH]c1=S`, the Potency is reported as inconclusive: 29.1 µM [cytotoxic, single point]. With `Cc1sc2ncnc(N3CCC(C(=O)Nc4ccc(S(N)(=O)=O)cc4)CC3)c2c1C` the “activity change, negative = cytotoxicity” value was inactive: 14.6%. With `CSc1nnc(-c2sc3cc(C(F)(F)F)cnc3c2-c2ccccc2)n1C` the Potency was active: 3.66 µM. In the case of `Cc1ccc(C)c(C(O)c2ncc(-c3ccccc3F)[nH]2)c1` (centres undefined), the “activity change, negative = cytotoxicity” value is reported as inactive: -10.4%. With `COc1ccc(-c2noc(-c3ccc(NC4CCCC4)c([N+](=O)[O-])c3)n2)cc1` the “activity change, negative = cytotoxicity” value was inactive: -28%. For `CC(=O)Nc1ccc(NC(=O)C(NS(=O)(=O)c2cccc3nsnc23)C(C)C)cc1` (centres undefined), the Potency was inconclusive: 29.1 µM [rising, single point]. For `Cc1ccc(CN(CC2CCCO2)C(=O)CN2C(=O)C(C(C)C)Oc3ccccc32)o1` (centres undefined), the “activity change, negative = cytotoxicity” value was inactive: -9.88%. For `CCOC(=O)N1CCN(C(=O)c2oc3ccc(S(=O)(=O)N4CCCCCC4)cc3c2C)CC1`, the Potency was inconclusive: 3.26 µM [cytotoxic, partial curve]. For `CCCCN(C)C(=O)c1nc2ccccn2c1CN1CCN(C(=O)c2cccs2)CC1`, the Potency was inconclusive: 20.6 µM [cytotoxic, partial curve, poor fit]. In the case of `COC(=O)c1scc(S(=O)(=O)C(C)C)c1N/N=C(\C#N)C(=O)c1ccc(Cl)cc1`, the Potency is reported as inconclusive: 7.31 µM [cytotoxic, partial curve, poor fit]. For `O=C(CCc1ccc(S(=O)(=O)N2CCOCC2)cc1)OCC(=O)c1ccccc1F`, the “activity change, negative = cytotoxicity” value was inactive: 6.31%. For `O=C(CN1C(=O)S/C(=C\c2ccc(F)cc2)C1=O)NCCCn1ccnc1`, the Potency was inconclusive: 18.4 µM [rising, single point]. In the case of `Cc1ccc(CN2CC(C(=O)Nc3ccncc3)CC2=O)cc1` (centres undefined), the Potency is reported as inconclusive: 4.11 µM [rising, full curve]. In the case of `O=C(CSc1nc2[nH]ncc2c(=O)[nH]1)Nc1ccc(Cl)cc1`, the “activity change, negative = cytotoxicity” value is reported as inactive: 14.9%. For `O=C(Cc1ccc(F)cc1)N1CCC2(CC1)NCCc1[nH]cnc12`, the Potency was inconclusive: 20.6 µM [rising, partial curve, poor fit]. In the case of `CCN1CCN(C(=O)C(C)Nc2ccc(OC)cc2OC)CC1` (centres undefined), the Potency is reported as inconclusive: 29.1 µM [rising, single point]. In the case of `O=C(Nc1ccon1)c1cccc(S(=O)(=O)N2CCCC2)c1`, the Potency is reported as inconclusive: 16.4 µM [cytotoxic, single point]. With `NC(=O)CN1C(=O)C(=O)N(Cc2ccccc2Cl)C1=O` the “activity change, negative = cytotoxicity” value was inactive: 6.06%. For `CCCCCCCCCCCCCCC[C@H](O)[C@H](N)CO`, the “activity change, negative = cytotoxicity” value was inactive: -12.6%. For `Cc1ccc(C(=O)c2oc3ccccc3c2NC(=O)c2cc(-c3ccccc3)on2)cc1F`, the “activity change, negative = cytotoxicity” value was inactive: 23.3%. For `CCOc1ccc(OCC)c(NC(=O)CN(c2ccc(C)cc2)S(=O)(=O)c2c(C)noc2C)c1`, the Potency was inconclusive: 32.6 µM [cytotoxic, partial curve, poor fit]. For `CCCCn1nc(C(=O)Nc2ccc3c(c2)OCO3)c2ccccc2c1=O`, the Potency was inconclusive: 29.1 µM [cytotoxic, single point]. In the case of `N#C/C(=C/c1ccc(N2CCOCC2)o1)c1ccc(Br)cc1`, the Potency is reported as active: 18.4 µM. With `CC(C)(C)NC(=O)NC(=O)CN1CCN(c2cccc(Cl)c2)CC1` the “activity change, negative = cytotoxicity” value was inactive: 25.8%. For `COc1cc(CC(=O)Nc2ccccc2N2CCCCC2)cc(OC)c1OC`, the Potency was inconclusive: 7.31 µM [cytotoxic, partial curve, poor fit]. With `CCOC(=O)CC(NC(=O)c1cc2cc(Br)ccc2oc1=O)c1cccc([N+](=O)[O-])c1` (centres undefined) the Potency was inconclusive: 11.6 µM [cytotoxic, partial curve]. With `CCOc1ccc(C(=O)Nc2ccc(-c3nc4ccccc4[nH]3)cc2)cc1Cl` the Potency was inconclusive: 29.1 µM [rising, single point]. With `CC(=O)COc1ccc2c(C)c(C)c(=O)oc2c1` the Potency was inconclusive: 18.4 µM [cytotoxic, partial curve, poor fit]. For `CCOC(=O)c1cc(-c2sc(NC(=O)c3ccccc3)nc2C)n(-c2ccc(Br)cc2)n1`, the Potency was inconclusive: 18.4 µM [cytotoxic, single point]. In the case of `Cn1c(-c2ccc(F)cc2)cnc1NCc1cccc(F)c1`, the Potency is reported as inconclusive: 16.4 µM [cytotoxic, single point]. In the case of `COc1ccc2c(c1)c(C(C)=O)c(C)n2-c1ccccc1`, the Potency is reported as inconclusive: 18.4 µM [cytotoxic, single point]. In the case of `COc1ccc(C(=O)NCCN2C(=O)S/C(=C\c3cccnc3)C2=O)c(OC)c1OC`, the Potency is reported as active: 14.6 µM. With `O=C(NC1CCCCC1)C1c2ccccc2OCC(=O)N1CCCN1CCOCC1` (centres undefined) the Potency was inconclusive: 2.91 µM [rising, full curve].
